From paper PMC5457685, “Pellino-1 promotes lung carcinogenesis via the stabilization of Slug and Snail through K63-mediated polyubiquitination” (Cell Death and Differentiation, 2016)

Target: T1, TAP-Pellino-1 (Flag-tagged Pellino-1) (human) (UniProt Q96FA3)
T1 sequence: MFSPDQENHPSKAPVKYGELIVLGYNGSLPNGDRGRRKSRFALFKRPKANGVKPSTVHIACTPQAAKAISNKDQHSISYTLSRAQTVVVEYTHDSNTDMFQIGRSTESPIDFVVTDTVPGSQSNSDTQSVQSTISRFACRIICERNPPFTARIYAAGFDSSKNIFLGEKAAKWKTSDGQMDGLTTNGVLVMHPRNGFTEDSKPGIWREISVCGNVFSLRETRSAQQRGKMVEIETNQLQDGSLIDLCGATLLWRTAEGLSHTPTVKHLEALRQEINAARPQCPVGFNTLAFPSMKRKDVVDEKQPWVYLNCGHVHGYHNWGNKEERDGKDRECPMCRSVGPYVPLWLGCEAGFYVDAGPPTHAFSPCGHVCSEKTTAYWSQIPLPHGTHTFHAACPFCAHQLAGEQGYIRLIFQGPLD
Test: pull-down; TAP-Pellino-1 (Strep-Flag) transfected 293T cells lysed in NETN buffer (100 mM NaCl, 1 mM EDTA, 20 mM Tris-HCl pH 8.0, 0.5% NP-40); streptavidin-sepharose beads 8 h at 4 °C; bound proteins immunoblotted

binding: no binding
Substance: E-cadherin (endogenous) (human (endogenous in 293T))

These are yes or no findings as the source states them, for the method shown. In cells and extracts the contact can be indirect. Sequences can lack the tags named with a protein.
